From patent publication US20250257130A1 (NONA BIOSCIENCES SUZHOU, published 2025)
Residue numbers refer to the chain shown, from its start. Results are given in words; binding and its absence hold for the method and conditions named. Some results given as binding are weak or reduced against the parent protein; the word gives no strength.

The chains behind the UniProt entries cited, without tags or fusion partners. Residues count along the entry.
UniProt Q01973, residues 30-937: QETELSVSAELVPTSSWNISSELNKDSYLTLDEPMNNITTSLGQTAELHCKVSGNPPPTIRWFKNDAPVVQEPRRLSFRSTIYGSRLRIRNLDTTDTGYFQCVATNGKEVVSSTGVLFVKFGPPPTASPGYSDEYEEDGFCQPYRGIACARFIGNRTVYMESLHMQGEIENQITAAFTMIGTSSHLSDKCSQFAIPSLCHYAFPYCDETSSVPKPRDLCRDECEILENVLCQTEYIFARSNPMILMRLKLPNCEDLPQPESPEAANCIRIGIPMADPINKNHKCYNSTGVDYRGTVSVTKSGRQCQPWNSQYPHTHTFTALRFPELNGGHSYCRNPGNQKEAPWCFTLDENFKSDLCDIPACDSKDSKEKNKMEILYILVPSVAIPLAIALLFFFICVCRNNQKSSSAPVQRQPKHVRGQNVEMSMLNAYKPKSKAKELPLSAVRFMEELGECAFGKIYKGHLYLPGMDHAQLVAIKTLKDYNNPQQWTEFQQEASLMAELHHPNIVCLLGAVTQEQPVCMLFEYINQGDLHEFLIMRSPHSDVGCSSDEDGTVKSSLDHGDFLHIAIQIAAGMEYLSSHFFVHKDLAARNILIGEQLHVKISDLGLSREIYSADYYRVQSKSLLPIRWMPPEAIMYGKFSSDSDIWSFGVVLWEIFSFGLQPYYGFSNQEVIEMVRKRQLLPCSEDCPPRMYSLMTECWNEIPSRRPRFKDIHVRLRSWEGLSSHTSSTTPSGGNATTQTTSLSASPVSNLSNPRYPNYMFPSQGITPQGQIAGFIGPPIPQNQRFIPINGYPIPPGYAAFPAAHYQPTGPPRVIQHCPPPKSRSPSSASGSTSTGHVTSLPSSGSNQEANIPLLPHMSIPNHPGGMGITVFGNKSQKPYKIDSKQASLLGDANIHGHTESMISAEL

B1: PR009823 (VHH)
VHH: EVQLVESGGGLVKPGGSLRLSCAASGFTFSDFYMSWIRQAPGKGLEWISYISSSGSWIHYASSVKGRFTISRDNAKNSLYLQMNSLRAEDTAIYYCARDMPSSSSDWVDLQFDYWGQGTLVTVSS
B2: PR007412 (antibody, V domains shown)
VH: B1 VHH with S62D, D109S
notes: bivalent form (HCAb) variant of PR005340, no light chain
B3: PR005340 (antibody, human IgG1, V domains shown)
VH: B1 VHH with F32Y, W57T, S62D, M100I, D109S
notes: HCAb (heavy chain-only, human IgG1 Fc), no light chain
B4: PR000374 (antibody, human IgG1, kappa, V domains shown)
VH: EVQLVESGGGLVQPGRSLRLSCTASGSDINDYPITWVRQAPGQGLEWIGFINSGGSTWYASWVKGRFTISRDDSKSIAYLQMNSLKTEDTAVYYCARGYSTYYRDFNIWGQGTLVTVSS
VL: DIQMTQSPSSLSASVGDRVTINCQASQSIDSNLAWFQQKPGQPPKLLIYRASNLASGVPDRFSGSGSGTDFTLTISSLEAEDVATYYCLGGVGAVSYRTSFGGGTKVEIKR
notes: positive control; also called Bench marker 1
B5: PR005349 (antibody, human IgG1, V domains shown)
VH: EVQLVESGGGLVKPGGSLRLSCAASGFTFSDYYMSWIRQAPGKGLEWISYISNSSSSISYANSVKGRFTVSRDNAKNSLYLQMNSLRAEDTALYYCARSPRSAFYEDFDYWGQGTLVTVSS
notes: as for B3
B6: PR303125 (antibody, human IgG1, V domains shown)
VH: EVQLLESGGGLVQPGGSLRLSCAASGFTFSSHAMSWVRQAPGKGLEWVSAISGSGDSTHYAASVKGRFTISRDNSKNTLYLQMNSLRAEDTAVYYCETLLRFLESLGNDGFKIWGQGTMVTVSS
notes: as for B3
B7: PR303191 (antibody, human IgG1, V domains shown)
VH: EVQLLESGGGLVQPGGSLRLSCAASGFIFGSYAMSWVRQAPGKGLEWVSGISGTGGNTYYADSVKGRFTISRDNSKNTLYLQMNSLRAEDTAVYFCERGITIHGVVIIPPDYRGQGTLVTVSS
notes: as for B3
B8: PR303201 (antibody, human IgG1, V domains shown)
VH: EVQLLESGGGLVQPGGSLRLSCAASGFTFSGNAMSWVRQAPGKGLEWVSAISGSGDKTYYAASVKGRFTISRDNSNNTVYLQMNSLRAEDTAVYYCEKGAFRTTMDYWGQGTLVTVSS
notes: as for B3
B9: PR303147 (antibody, human IgG1, V domains shown)
VH: EVQLVESGGGLVQPGGSLRLSCAASGFTFSNFWMYWVRQAPGKGLVWVSRINSDGSSTNYADSVKGRFTISRDNAKNTLYLQMNSLRVEDTAVYSCAREGSGWYEDFDYWGQGTLVTVSS
notes: as for B3
B10: PR005352 (antibody, human IgG1, V domains shown)
VH: EVQLVESGGGLVKPGGSLRLSCAASGFTFSDYYMSWIRQAPGKGLEWISYISSSGGSIYYADSVKGRFTISRDNAKNSLYLQMNRLRAEDTALYYCARTPPSSNNWYEDFDYWGQGALVTVSS
notes: as for B3

How the values were obtained:
[1] = molecular target: human ROR1 on cells (HEK293T-hROR1, PANC-1, A549) (human) (UniProt Q01973); assay: flow cytometry on PANC-1 cells (monovalent VH-Flag-His form)
[2] = molecular target: human ROR1 on cells (HEK293T-hROR1, PANC-1, A549) (human) (UniProt Q01973); assay: flow cytometry on PANC-1 cells, MFI (Median-APC) [top panel]
[3] = molecular target: human ROR1 on cells (HEK293T-hROR1, PANC-1, A549) (human) (UniProt Q01973); assay: flow cytometry, PANC-1 cells
[4] = molecular target: cynomolgus ROR1 on CHO-K1-cynoROR1 cells (cynomolgus monkey); assay: flow cytometry, CHO-K1-cynoROR1 cells
[5] = molecular target: human ROR1 on cells (HEK293T-hROR1, PANC-1, A549) (human) (UniProt Q01973); assay: flow cytometry on PANC-1 cells, MFI (Median-APC) [middle panel, letter not given]
[6] = molecular target: human ROR1 on cells (HEK293T-hROR1, PANC-1, A549) (human) (UniProt Q01973); assay: flow cytometry on PANC-1 cells, MFI (APC-A Median)
[7] = molecular target: cynomolgus ROR1 on CHO-K1-cynoROR1 cells (cynomolgus monkey); assay: flow cytometry on CHOK1-cynoROR1 cells, MFI (APC-A Median) [top panel]
[8] = molecular target: human ROR1 on cells (HEK293T-hROR1, PANC-1, A549) (human) (UniProt Q01973); assay: flow cytometry on PANC-1 cells, MFI (Median-APC) [bottom panel, letter not given]
[9] = molecular target: cynomolgus ROR1 on CHO-K1-cynoROR1 cells (cynomolgus monkey); assay: flow cytometry on CHOK1-cynoROR1 cells, MFI (APC-A Median) [middle panel, letter not given]
[10] = molecular target: cynomolgus ROR1 on CHO-K1-cynoROR1 cells (cynomolgus monkey); assay: flow cytometry on CHOK1-cynoROR1 cells, MFI (Mean) [bottom panel, letter not given]
[11] = molecular target: human ROR1 on cells (HEK293T-hROR1, PANC-1, A549) (human) (UniProt Q01973); assay: flow cytometry on PANC-1 cells, MFI (FITC-A Median) [continued) C]

Row | Binder | binding [3] | binding [4] | binding [10] | also measured
1 | B1 |  |  |  | binding [1]: binds
2 | B2 |  |  |  | binding [2]: binds
3 | B3 | binds | binds |  | binding [5]: binds; binding [2]: binds; binding [6]: binds; binding [7]: binds; binding [8]: binds
4 | B4 |  |  | binds | binding [7]: binds; binding [9]: binds
5 | B5 | binds | binds |  | binding [11]: binds
6 | B6 |  | binds | binds | 
7 | B7 |  | binds | binds | 
8 | B8 |  | binds | binds | 
9 | B9 |  | binds | binds | 
10 | B10 | binds | binds |  | binding [11]: binds
